Assay results taken from the supplement of paper PMC12067093, “Discovery and optimisation of a covalent ligand for TRIM25 and its application to targeted protein ubiquitination” (Chemical Science, 2025).
This is one part of the list.

Sequences of proteins named here, by UniProt entry; tags and fusion partners are left off. A change or cut given only in a name is not applied to a line headed by its entry.
UniProt Q99996, whole entry, looked up: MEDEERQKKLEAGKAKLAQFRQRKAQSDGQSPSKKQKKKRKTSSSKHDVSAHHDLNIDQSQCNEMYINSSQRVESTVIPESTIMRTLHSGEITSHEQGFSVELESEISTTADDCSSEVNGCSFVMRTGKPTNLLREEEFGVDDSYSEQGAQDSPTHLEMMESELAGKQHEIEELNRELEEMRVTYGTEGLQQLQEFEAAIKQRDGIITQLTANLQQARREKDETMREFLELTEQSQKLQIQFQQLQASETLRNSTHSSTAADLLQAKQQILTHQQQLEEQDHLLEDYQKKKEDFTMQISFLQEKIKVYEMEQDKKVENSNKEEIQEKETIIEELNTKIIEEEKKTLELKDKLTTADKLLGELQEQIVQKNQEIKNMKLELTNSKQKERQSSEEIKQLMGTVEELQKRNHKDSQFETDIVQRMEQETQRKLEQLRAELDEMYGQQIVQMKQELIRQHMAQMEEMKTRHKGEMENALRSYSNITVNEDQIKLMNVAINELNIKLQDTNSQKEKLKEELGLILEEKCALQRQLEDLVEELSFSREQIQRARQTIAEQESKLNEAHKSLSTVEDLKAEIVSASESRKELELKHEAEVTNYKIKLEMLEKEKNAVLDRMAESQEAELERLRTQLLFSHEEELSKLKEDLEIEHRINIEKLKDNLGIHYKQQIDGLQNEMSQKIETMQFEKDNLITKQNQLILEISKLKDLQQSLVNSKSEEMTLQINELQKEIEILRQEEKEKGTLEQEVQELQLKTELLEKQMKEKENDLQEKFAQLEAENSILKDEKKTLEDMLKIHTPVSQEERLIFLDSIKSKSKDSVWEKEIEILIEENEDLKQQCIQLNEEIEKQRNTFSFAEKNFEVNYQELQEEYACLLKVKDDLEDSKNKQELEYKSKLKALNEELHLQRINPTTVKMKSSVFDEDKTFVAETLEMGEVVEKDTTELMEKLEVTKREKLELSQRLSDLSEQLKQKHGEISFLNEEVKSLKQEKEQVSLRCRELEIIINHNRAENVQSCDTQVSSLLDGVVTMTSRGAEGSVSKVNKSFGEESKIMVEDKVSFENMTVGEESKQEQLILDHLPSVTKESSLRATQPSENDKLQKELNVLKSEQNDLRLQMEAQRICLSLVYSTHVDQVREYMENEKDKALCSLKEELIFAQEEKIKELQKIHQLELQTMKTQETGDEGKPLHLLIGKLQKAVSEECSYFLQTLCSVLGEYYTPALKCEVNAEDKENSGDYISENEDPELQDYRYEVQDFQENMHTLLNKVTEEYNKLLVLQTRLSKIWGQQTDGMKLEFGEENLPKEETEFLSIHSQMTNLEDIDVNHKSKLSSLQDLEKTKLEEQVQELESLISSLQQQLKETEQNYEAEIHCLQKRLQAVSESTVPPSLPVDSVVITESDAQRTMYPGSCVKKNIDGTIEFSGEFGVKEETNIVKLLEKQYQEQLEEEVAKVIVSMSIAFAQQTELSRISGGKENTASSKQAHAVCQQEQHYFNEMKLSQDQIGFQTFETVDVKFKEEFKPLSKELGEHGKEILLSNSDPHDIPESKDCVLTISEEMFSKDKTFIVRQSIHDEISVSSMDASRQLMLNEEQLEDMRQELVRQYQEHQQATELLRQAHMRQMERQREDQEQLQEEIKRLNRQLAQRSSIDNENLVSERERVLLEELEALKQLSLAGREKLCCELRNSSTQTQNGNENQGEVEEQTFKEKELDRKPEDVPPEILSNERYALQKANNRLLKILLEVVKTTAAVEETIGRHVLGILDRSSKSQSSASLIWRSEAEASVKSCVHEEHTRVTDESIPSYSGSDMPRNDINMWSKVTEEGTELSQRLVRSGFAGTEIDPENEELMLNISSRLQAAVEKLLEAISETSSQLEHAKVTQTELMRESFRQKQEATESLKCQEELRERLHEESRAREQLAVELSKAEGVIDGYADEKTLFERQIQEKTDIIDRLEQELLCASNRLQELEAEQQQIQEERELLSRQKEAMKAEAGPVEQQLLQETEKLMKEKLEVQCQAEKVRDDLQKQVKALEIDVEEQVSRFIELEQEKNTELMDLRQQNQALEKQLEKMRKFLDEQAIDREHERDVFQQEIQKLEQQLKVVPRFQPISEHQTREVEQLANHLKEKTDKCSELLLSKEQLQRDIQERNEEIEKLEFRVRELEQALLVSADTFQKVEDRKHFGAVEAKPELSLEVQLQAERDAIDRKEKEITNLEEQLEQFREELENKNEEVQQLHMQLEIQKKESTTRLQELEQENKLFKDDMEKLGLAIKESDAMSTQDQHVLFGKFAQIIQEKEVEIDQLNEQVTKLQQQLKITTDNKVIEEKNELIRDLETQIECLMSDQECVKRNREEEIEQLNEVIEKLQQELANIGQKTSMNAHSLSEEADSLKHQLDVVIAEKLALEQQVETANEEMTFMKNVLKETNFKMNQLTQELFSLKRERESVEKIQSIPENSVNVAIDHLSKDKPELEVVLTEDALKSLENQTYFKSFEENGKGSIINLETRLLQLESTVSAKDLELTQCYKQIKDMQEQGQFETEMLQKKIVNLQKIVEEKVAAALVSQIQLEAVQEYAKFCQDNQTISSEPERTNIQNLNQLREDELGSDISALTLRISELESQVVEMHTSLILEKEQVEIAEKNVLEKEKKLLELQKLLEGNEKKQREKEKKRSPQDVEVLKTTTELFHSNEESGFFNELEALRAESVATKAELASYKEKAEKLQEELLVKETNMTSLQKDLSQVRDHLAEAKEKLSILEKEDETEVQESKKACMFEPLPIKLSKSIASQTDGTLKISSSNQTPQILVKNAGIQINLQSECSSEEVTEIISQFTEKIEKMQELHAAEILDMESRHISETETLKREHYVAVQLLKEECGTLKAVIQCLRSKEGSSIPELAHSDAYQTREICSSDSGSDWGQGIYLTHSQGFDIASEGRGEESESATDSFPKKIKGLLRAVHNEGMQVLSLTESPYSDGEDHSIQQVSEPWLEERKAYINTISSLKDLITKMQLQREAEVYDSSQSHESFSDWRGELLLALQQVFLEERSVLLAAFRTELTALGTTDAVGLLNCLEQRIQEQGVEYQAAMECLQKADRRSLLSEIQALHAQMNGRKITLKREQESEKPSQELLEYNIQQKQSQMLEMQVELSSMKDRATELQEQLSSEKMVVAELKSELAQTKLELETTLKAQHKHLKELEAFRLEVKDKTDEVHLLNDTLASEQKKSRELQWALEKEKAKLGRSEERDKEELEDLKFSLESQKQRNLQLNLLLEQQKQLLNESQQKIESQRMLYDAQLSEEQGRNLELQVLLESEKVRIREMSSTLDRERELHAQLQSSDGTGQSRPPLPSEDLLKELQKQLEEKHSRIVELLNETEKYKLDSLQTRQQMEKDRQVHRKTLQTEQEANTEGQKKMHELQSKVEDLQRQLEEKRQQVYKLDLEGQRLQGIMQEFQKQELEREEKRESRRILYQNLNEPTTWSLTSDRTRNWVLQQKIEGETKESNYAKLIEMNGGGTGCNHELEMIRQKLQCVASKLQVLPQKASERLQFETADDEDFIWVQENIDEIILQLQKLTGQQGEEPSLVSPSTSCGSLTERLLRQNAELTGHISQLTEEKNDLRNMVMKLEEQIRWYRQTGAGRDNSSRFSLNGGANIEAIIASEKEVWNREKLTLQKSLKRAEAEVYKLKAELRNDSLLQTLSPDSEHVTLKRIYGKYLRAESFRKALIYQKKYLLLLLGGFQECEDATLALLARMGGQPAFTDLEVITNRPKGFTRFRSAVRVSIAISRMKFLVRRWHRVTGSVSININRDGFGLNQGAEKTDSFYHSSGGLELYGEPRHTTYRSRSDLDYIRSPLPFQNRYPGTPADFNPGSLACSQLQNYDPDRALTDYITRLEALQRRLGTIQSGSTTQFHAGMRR
UniProt P23526: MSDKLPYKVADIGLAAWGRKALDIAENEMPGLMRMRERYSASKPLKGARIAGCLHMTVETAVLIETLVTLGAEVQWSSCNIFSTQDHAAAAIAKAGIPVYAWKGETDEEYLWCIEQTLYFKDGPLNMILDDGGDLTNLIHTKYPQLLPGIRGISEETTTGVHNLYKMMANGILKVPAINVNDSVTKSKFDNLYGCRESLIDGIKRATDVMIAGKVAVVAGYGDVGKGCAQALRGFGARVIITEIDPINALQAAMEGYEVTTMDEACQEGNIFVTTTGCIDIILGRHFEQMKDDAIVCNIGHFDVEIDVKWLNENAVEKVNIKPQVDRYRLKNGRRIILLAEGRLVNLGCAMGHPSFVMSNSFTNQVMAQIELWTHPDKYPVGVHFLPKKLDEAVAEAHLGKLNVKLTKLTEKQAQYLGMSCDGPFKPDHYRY
UniProt P04075: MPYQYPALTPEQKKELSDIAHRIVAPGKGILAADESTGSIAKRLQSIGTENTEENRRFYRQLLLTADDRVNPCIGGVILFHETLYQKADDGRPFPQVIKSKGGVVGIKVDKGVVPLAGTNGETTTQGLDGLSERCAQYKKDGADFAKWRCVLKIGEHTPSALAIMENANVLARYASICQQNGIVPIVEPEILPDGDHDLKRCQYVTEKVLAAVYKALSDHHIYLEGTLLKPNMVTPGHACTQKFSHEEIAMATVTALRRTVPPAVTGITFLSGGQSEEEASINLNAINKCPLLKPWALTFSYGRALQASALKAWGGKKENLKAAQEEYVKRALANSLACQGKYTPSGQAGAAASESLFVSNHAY
UniProt P54886: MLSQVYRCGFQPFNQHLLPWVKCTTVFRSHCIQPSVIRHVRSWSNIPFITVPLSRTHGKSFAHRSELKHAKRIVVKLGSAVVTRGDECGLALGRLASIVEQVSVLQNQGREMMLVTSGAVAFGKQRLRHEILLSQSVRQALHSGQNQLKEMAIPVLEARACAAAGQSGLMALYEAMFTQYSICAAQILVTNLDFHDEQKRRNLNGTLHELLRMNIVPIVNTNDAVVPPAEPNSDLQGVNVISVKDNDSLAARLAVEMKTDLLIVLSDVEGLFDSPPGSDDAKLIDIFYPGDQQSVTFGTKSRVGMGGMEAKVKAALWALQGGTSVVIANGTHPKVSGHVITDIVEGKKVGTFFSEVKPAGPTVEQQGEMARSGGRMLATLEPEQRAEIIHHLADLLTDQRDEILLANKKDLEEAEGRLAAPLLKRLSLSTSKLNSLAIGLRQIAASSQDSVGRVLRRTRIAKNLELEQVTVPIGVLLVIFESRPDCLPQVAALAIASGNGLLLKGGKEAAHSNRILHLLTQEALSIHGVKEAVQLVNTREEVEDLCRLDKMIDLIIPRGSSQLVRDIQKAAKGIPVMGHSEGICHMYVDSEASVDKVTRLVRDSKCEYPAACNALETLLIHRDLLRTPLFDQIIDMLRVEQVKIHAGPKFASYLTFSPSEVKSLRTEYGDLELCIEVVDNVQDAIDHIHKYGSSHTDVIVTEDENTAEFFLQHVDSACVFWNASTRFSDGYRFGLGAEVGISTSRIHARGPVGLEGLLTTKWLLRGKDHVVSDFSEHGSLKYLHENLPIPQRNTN
UniProt Q3SY69: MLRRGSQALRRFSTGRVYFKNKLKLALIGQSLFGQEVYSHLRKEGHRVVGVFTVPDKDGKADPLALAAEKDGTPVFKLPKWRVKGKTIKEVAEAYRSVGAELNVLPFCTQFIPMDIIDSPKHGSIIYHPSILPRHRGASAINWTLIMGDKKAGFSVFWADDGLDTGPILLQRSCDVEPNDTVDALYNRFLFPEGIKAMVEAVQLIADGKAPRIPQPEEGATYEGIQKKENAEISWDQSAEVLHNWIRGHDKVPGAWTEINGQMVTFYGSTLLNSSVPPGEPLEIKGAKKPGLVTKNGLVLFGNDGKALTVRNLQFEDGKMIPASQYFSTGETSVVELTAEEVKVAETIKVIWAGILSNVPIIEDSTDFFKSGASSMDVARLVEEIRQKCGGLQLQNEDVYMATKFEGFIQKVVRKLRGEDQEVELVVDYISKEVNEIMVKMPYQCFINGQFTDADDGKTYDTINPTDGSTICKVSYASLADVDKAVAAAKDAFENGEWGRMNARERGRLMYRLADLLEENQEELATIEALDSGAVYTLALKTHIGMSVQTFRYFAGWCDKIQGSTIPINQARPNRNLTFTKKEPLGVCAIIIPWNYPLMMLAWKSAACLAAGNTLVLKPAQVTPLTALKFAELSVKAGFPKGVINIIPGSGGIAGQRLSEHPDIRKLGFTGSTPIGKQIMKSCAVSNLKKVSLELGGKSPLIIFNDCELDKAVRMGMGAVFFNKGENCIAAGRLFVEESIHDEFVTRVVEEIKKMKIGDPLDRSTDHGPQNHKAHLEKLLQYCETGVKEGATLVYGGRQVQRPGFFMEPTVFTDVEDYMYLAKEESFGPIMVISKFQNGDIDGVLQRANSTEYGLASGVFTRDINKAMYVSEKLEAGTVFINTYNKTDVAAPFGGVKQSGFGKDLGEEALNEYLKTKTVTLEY

Compound: CC1Cc2ccccc2N1C(=O)C1CCCN(C1)C(=O)CCl (mixture of isomers) [TRIM25 ligand 11 (diastereomer mixture)]
Experiment: probe-labelled cysteine peptide fold change vs DMSO (competition) (log2 fold change); higher = less target engagement (more negative = stronger competition)
Settings: 10 µM; THP-1; incubation time: 4 h
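Also: competitive chemoproteomic profiling in live THP-1 cells with an iodoacetamide desthiobiotin (IA-DTB) probe, comparing probe-labelled peptide intensities in compound-treated cells against DMSO-treated controls.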

| Target | probe-labelled cysteine peptide fold change |
| --- | --- |
| AKR1A1_P14550_187_QIDDILSVASVRPAVLQVECHPYLAQNELIAHCQAR (UniProt P14550) | 0.15 |
| AK2_P54819_42_LAENFCVCHLATGDMLR (UniProt P54819) | -0.0797 |
| ALKBH3_Q96Q83_201_CPIIASLSFGATR (UniProt Q96Q83) | -0.0829 |
| AKAP9_Q99996_3063_TELTALGTTDAVGLLNCLEQR (UniProt Q99996) | -0.00678 |
| AMOT_Q4VCS5_741_CLDMEGR (UniProt Q4VCS5) | 0.107 |
| ALOX5_P09917_265_LPVTTEMVECSLER (UniProt P09917) | -0.0778 |
| AHCY_P23526_113_GETDEEYLWCIEQTLYFK (UniProt P23526) | -0.0406 |
| AKAP9_Q99996_1782_SCVHEEHTR (UniProt Q99996) | -0.0829 |
| AMFR_Q9UKV5_356+364_KLPCGHLFHNSCLR (UniProt Q9UKV5) | 0.166 |
| ALDOA_P04075_339_ALANSLACQGK (UniProt P04075) | -0.0633 |
| ALDH18A1_P54886_546_EEVEDLCR (UniProt P54886) | 0.122 |
| ANAPC5_Q9UJX4_670_CQVASAASYDQPK (UniProt Q9UJX4) | -0.0326 |
| AGL_P35573_767_EVPQMCIPGK (UniProt P35573) | 0.049 |
| ALDH9A1_P49189_443_VVAELQAGTCFINNYNVSPVELPFGGYKK (UniProt P49189) | -0.0178 |
| ALDH3B1_P43353_162_ILAEVLPQYVDQSCFAVVLGGPQETGQLLEHR (UniProt P43353) | 0.544 |
| AGPS_O00116_565_GVQFAPFSTCR (UniProt O00116) | -0.0113 |
| ALDH2_P05091_66_KTFPTVNPSTGEVICQVAEGDKEDVDK (UniProt P05091) | -0.122 |
| ALDH7A1_P49419_522_STCTINYSK (UniProt P49419) | 0.173 |
| AHCY_P23526_297_DDAIVCNIGHFDVEIDVK (UniProt P23526) | 0.234 |

| Target | probe-labelled cysteine peptide fold change |
| --- | --- |
| AKAP17A_Q02040_17_AAATIVHDTSEAVELCPAYGLYLK (UniProt Q02040) | 0.583 |
| AMBRA1_Q9C0C7_1036_GDLVICRPEALNSGVEYYWDQLNETVFTVHSNSR (UniProt Q9C0C7) | -0.0165 |
| AKAP2_Q9Y2D5_296_RAQQEQLLLQKQLQQQQQQPPSQLCTAPASSHER (UniProt Q9Y2D5) | -0.14 |
| ALDH16A1_Q8IZ83_249_VAFCGAPEEGR (UniProt Q8IZ83) | -0.187 |
| AKR1A1_P14550_187+200_QIDDILSVASVRPAVLQVECHPYLAQNELIAHCQAR (UniProt P14550) | -0.0471 |
| ALDH18A1_P54886_584_GIPVMGHSEGICHMYVDSEASVDK (UniProt P54886) | -0.157 |
| AHCTF1_Q8WYP5_107_RTGLLIGLEETEGSVLCLYDLGISK (UniProt Q8WYP5) | -0.0044 |
| AKAP2_Q9Y2D5_10_MEIEVSVAECK (UniProt Q9Y2D5) | -0.0921 |
| AKR1B1_P15121_187_PAVNQIECHPYLTQEK (UniProt P15121) | 0.0786 |
| AKAP1_Q92667_655_IYISTLPYTQSVQICHIEGSQHHVDK (UniProt Q92667) | 0.11 |
| ANAPC1_Q9H1A4_225_EPLPTMFSMLHPLDEITPLVCK (UniProt Q9H1A4) | 0.177 |
| AKR7A2_O43488_156_LQCPQVDLFYLHAPDHGTPVEETLHACQR (UniProt O43488) | 0.275 |
| AHCYL1_O43865_317_QVVVCGYGEVGK (UniProt O43865) | 0.0174 |
| ALDH1L2_Q3SY69_683_SCAVSNLK (UniProt Q3SY69) | 0.0456 |
| AHCY_P23526_195_SKFDNLYGCR (UniProt P23526) | -0.0471 |
| AKR1B1_P15121_299_VCALLSCTSHK (UniProt P15121) | 0.129 |
| ALDOA_P04075_202_CQYVTEK (UniProt P04075) | 0.0126 |
| ALG11_Q2TAA5_72_NQMVIAFFHPYCNAGGGGER (UniProt Q2TAA5) | -0.0377 |
| AMACR_Q9UHK6_284_AEWCQIFDGTDACVTPVLTFEEVVHHDHNK (UniProt Q9UHK6) | 0.083 |
